Measurements from PMC7310287.
No constants are given. Whether binding was seen depends on the method and setting. In cells and extracts the contact can be indirect. Some binding calls cover weakened binding; strength is not graded here. For part of these data: Where a sequence is shown, tags or fusion partners need not be part of it.

Chains of the proteins cited; added tags and fusions are not shown.
UniProt P63208: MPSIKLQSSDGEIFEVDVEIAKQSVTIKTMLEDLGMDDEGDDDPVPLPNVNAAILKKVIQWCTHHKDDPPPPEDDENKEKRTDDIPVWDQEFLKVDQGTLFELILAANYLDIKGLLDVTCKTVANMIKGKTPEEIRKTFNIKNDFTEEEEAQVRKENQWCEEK

Legend:
[1] = molecular target: T1, FBXL6 (endogenous) (human (endogenous in Hep3B, SMMC-7721)) (UniProt Q8N531); assay: co-IP; endogenous proteins; SMMC-7721 cell lysate immunoprecipitated with anti-FBXL6 antibody or IgG, immunoblot for HSP90AA1 and FBXL6
T1 sequence: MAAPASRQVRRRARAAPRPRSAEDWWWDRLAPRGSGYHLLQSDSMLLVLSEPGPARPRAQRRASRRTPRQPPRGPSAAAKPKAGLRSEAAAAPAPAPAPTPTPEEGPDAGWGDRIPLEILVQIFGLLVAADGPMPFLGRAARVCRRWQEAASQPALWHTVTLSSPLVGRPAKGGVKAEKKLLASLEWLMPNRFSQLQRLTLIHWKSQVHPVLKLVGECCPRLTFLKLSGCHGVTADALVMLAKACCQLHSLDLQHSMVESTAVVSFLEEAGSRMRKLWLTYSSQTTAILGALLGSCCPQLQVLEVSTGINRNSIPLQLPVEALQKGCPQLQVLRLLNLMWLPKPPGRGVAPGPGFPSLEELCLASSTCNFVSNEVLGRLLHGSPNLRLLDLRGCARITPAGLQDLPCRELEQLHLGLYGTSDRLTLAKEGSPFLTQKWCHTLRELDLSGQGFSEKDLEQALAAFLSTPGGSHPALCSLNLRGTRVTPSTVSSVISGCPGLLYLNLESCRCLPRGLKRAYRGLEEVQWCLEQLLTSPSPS

[2] = molecular target: T2, Flag-FBXL6 (human) (UniProt Q8N531); assay: co-IP; 293T cells expressing Flag-tagged F-box proteins (transfected or infected with retroviruses), Flag M2 resin purification, immunoblot for endogenous partners; IP buffer 100 mM NaCl, 20 mM Tris-Cl pH 8.0, 0.5 mM EDTA, 0.5% Nonidet P-40
T2 sequence: T1 sequence

| binding [1] | binding [2] | Substance |
| --- | --- | --- |
| binds | binds | HSP90AA1 (from UniProt P07900 1-732) |
|  | binds | SKP1 (from UniProt P63208 1-163) |
